Results are given in words; binding and its absence hold for the method and conditions named. In cells and extracts the contact can be indirect. Binding can be weak; no strength is given. For some assays here: Sequences can lack the tags named with a protein.

Chains of the proteins cited; added tags and fusions are not shown. Lines headed by an entry give the natural chain unless they say otherwise; changes in a name come on top.
UniProt P17302: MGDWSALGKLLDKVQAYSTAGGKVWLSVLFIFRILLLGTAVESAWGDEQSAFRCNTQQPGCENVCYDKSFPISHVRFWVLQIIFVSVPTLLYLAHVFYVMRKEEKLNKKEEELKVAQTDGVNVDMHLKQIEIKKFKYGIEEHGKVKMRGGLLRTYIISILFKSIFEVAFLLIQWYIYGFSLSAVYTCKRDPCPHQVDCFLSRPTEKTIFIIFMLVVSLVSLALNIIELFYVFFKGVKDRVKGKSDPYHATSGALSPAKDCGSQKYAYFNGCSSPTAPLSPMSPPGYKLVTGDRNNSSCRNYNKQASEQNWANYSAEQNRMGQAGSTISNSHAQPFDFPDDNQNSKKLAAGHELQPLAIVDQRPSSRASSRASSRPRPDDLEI

The target in experiment [1] is T1, cytoplasmic region of desmocollin-2a wild-type, GST fusion protein, bacterially expressed (UniProt Q02487).
T1 sequence: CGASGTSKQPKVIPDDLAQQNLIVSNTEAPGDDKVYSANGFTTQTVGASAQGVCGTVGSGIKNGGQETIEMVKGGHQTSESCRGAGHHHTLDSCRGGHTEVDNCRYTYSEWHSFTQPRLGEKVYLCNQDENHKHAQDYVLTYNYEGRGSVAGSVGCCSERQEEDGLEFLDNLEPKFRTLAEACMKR
Briefly: pull-down; GST pulldown: bacterially expressed GST fusions of the DSC2 cytoplasmic region as bait; GFP fusion of the Cx43 cytoplasmic tail (or GFP alone) expressed in COS-1 cells; only the target purified.

The target in experiment [2] is full-length desmocollin-2a wild-type, transfected (UniProt Q02487). Description: co-IP; full-length DSC2a WT or mutant, co-immunoprecipitation with plakoglobin; empty vector as control.

For the molecule “connexin43 cytoplasmic tail (CT), green fluorescent protein (GFP) fusion protein (from UniProt P17302) (domain or fragment)”, in experiment [1], the binding entry was “binds”.

B1: plakoglobin in the co-immunoprecipitation with full-length DSC2a (protein, UniProt P14923 1-745)
chain: MEVMNLMEQPIKVTEWQQTYTYDSGIHSGANTCVPSVSSKGIMEEDEACGRQYTLKKTTTYTQGVPPSQGDLEYQMSTTARAKRVREAMCPGVSGEDSSLLLATQVEGQATNLQRLAEPSQLLKSAIVHLINYQDDAELATRALPELTKLLNDEDPVVVTKAAMIVNQLSKKEASRRALMGSPQLVAAVVRTMQNTSDLDTARCTTSILHNLSHHREGLLAIFKSGGIPALVRMLSSPVESVLFYAITTLHNLLLYQEGAKMAVRLADGLQKMVPLLNKNNPKFLAITTDCLQLLAYGNQESKLIILANGGPQALVQIMRNYSYEKLLWTTSRVLKVLSVCPSNKPAIVEAGGMQALGKHLTSNSPRLVQNCLWTLRNLSDVATKQEGLESVLKILVNQLSVDDVNVLTCATGTLSNLTCNNSKNKTLVTQNSGVEALIHAILRAGDKDDITEPAVCALRHLTSRHPEAEMAQNSVRLNYGIPAIVKLLNQPNQWPLVKATIGLIRNLALCPANHAPLQEAAVIPRLVQLLVKAHQDAQRHVAAGTQQPYTDGVRMEEIVEGCTGALHILARDPMNRMEIFRLNTIPLFVQLLYSSVENIQRVAAGVLCELAQDKEAADAIDAEGASAPLMELLHSRNEGTATYAAAVLFRISEDKNPDYRKRVSVELTNSLFKHDPAAWEAAQSMIPINEPYGDDMDATYRPMYSSDVPLDPLEMHMDMDGDYPIDTYSDGLRPPYPTADHMLA
In the case of B1, in experiment [2], the binding result was “binds”.

These data come from publication PMC3085091.
